Test results: patent publication US20230116446A1
Results are given in words; binding and its absence hold for the method and conditions named. Some binding calls cover weakened binding; strength is not graded here.

Biological target: T1, human Claudin 18 splice variant 2 (hCLDN18.2) (human) (UniProt P56856)
T1 sequence (looked up): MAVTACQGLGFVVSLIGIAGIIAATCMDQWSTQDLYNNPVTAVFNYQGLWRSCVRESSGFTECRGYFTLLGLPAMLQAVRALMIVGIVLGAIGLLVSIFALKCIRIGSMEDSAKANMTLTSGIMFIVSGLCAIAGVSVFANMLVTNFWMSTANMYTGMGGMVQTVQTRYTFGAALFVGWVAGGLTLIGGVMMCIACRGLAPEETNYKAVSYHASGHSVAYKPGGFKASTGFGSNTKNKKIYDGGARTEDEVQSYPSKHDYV
Experiment: Flow cytometry on Expi293 cells stably expressing human CLDN18.2 (EF1a::huCLDN18.2); detection with APC-conjugated anti-human IgG F(ab')2; gMFI against mAb (nM)

binding: binds
B1: parental anti-hCLDN18.2 59F9E1 IgG1 antibody (antibody, V domains shown)
VH: QVQLVQSGAEVKKPGSSVKVSCKASGYTLTGYWIEWLRQRPGQGLEWMGEILLGSGSIKYNVKFKDRVTITADESTSTAYMELSSLRSEDTAVYYCARKGLRGNSFDYWGQGTLVTVSS
VL: DIVMTQSPSSLTVSLGEKATISCKSSQSLLNSGNQKSYLTWYQQKPGQPPKRLIYWASTRESGVPDRFSGSGSGTDFTLTISSLQAEDLAVYYCQNDYYYPFTFGQGTKVEIKR
